Measurements as given in US20060083742A1.
These are yes or no findings as the source states them, for the method shown. In cells and extracts the contact can be indirect. Some results given as binding are weak or reduced against the parent protein; the word gives no strength.

Biological target: GFP-tagged Bcl-2 (human) (UniProt P10415)
Test: co-immunoprecipitation from co-transfected Cos-1 cells (Y13-259 IP, anti-GFP blot)

“HA-tagged K-Ras12V (from UniProt P01116 1-185)” was tested, and the binding was “binds”.
